# The other results are listed elsewhere or left out. Many values rest on one well or one pass, so single values are uncertain.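 Imaging used 1,536-well plates; nuclei positive for cleaved PARP by antibody were divided by total DNA-stained nuclei to yield the apoptosis fraction. Doses for screening kept most cells viable, and cell lines differ markedly in resting and induced cleaved-PARP levels.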
# Test system: COLO800
# Assay: cleaved PARP positive nuclei fraction relative to DMSO control; melanoma cells; higher = more apoptosis
# Conditions: library dose: low library concentration; 72 h
row,Structure (SMILES),cleaved PARP positive nuclei fraction [%]
1,"COc1cc([C@@H]2c3cc4c(cc3[C@@H](O[C@@H]3O[C@@H]5CO[C@@H](C)O[C@H]5[C@H](O)[C@H]3O)[C@H]3COC(=O)[C@H]23)OCO4)cc(OC)c1O [etoposide] + CN(NC(=O)CC(=O)NN(C)C(=S)c1ccccc1)C(=S)c1ccccc1 [STA4783] (first compound 0.02 µM, partner dose 0.006 µM)",122
2,"O=C(Nc1cc(C(F)(F)F)cc(C(F)(F)F)c1)c1cc(Cl)ccc1O + O=C(Nc1cccc(Cl)c1)Nc1ncc(CCNc2ncnc3ccsc23)s1 [SNS314] (first compound 0.016 µM, partner dose 0.0008 µM)",52.5
3,"Cc1cn(-c2cc(NC(=O)c3ccc(C)c(Nc4nccc(-c5cccnc5)n4)c3)cc(C(F)(F)F)c2)cn1 [nilotinib] + NC(=O)Nc1cc(-c2cccc(F)c2)sc1C(=O)N[C@H]1CCCNC1 [AZD7762] (first compound 0.2 µM, partner dose 0.02 µM)",105
4,"Cc1cn(-c2cc(NC(=O)c3ccc(C)c(Nc4nccc(-c5cccnc5)n4)c3)cc(C(F)(F)F)c2)cn1 [nilotinib] + O=C(O)c1ccc(-c2c[nH]c3ncc(-c4ccccc4)cc23)cc1C1CCCC1 [GSK650394] (first compound 0.2 µM, partner dose 0.16 µM)",92.3
5,"O=C(/C=C/c1cccnc1)NCCCCC1CCN(C(=O)c2ccccc2)CC1 + CC(C)(C)c1cnc(CSc2cnc(NC(=O)C3CCNCC3)s2)o1 [SNS-032] (first compound 0.01 µM, partner dose 0.01 µM)",148
6,"Cc1cn(-c2cc(NC(=O)c3ccc(C)c(Nc4nccc(-c5cccnc5)n4)c3)cc(C(F)(F)F)c2)cn1 [nilotinib] + O=C(CCCCCCC(=O)Nc1ccccc1)NO [vorinostat] (first compound 0.2 µM, partner dose 0.08 µM)",66.1
7,"N#CC[C@H](C1CCCC1)n1cc(-c2ncnc3[nH]ccc23)cn1 [ruxolitinib] + O=C(O)c1ccc(-c2c[nH]c3ncc(-c4ccccc4)cc23)cc1C1CCCC1 [GSK650394] (first compound 1 µM, partner dose 0.16 µM)",48.1
8,"O=C(Nc1cc(C(F)(F)F)cc(C(F)(F)F)c1)c1cc(Cl)ccc1O + CO[C@@H]1[C@H](N(C)C(=O)c2ccccc2)C[C@H]2O[C@]1(C)n1c3ccccc3c3c4c(c5c6ccccc6n2c5c31)C(=O)NC4 [Midostaurin] (first compound 0.016 µM, partner dose 0.08 µM)",167
9,"N#CC[C@H](C1CCCC1)n1cc(-c2ncnc3[nH]ccc23)cn1 [ruxolitinib] + Cc1ccc(NC(=O)c2cccc(N(C)C)c2)cc1NC(=O)c1ccc(O)cc1 [ZM336372] (first compound 1 µM, partner dose 2 µM)",52.3
10,"N#CC[C@H](C1CCCC1)n1cc(-c2ncnc3[nH]ccc23)cn1 [ruxolitinib] + CC1(C)NC(=O)N(c2ccc([N+](=O)[O-])c(C(F)(F)F)c2)C1=O [nilutamide] (first compound 1 µM, partner dose 1 µM)",77.8
11,"CC[C@]1(O)C[C@H]2CN(CCc3c([nH]c4ccccc34)[C@@](C(=O)OC)(c3cc4c(cc3OC)N(C=O)[C@H]3[C@@](O)(C(=O)OC)[C@H](OC(C)=O)[C@]5(CC)C=CCN6CC[C@]43[C@@H]65)C2)C1 [vincristine] + O=C(Nc1cccc(Cl)c1)Nc1ncc(CCNc2ncnc3ccsc23)s1 [SNS314] (first compound 0.0001 µM, partner dose 0.0008 µM)",146
12,"Cc1cn(-c2cc(NC(=O)c3ccc(C)c(Nc4nccc(-c5cccnc5)n4)c3)cc(C(F)(F)F)c2)cn1 [nilotinib] + CC(C)(C)c1cnc(CSc2cnc(NC(=O)C3CCNCC3)s2)o1 [SNS-032] (first compound 0.2 µM, partner dose 0.01 µM)",86.8
13,"COc1cc([C@@H]2c3cc4c(cc3[C@@H](O[C@@H]3O[C@@H]5CO[C@@H](C)O[C@H]5[C@H](O)[C@H]3O)[C@H]3COC(=O)[C@H]23)OCO4)cc(OC)c1O [etoposide] + NC(=O)Nc1cc(-c2cccc(F)c2)sc1C(=O)N[C@H]1CCCNC1 [AZD7762] (first compound 0.02 µM, partner dose 0.02 µM)",100
14,"Cc1cc(Nc2cc(N3CCN(C)CC3)nc(Sc3ccc(NC(=O)C4CC4)cc3)n2)n[nH]1 [Tozasertib] + Cn1cncc1[C@@](N)(c1ccc(Cl)cc1)c1ccc2c(c1)c(-c1cccc(Cl)c1)cc(=O)n2C [tipifarnib] (first compound 0.006 µM, partner dose 0.01 µM)",43.8
15,"Cc1ccc(Nc2nccc(N(C)c3ccc4c(C)n(C)nc4c3)n2)cc1S(N)(=O)=O [Pazopanib] + Cn1cncc1[C@@](N)(c1ccc(Cl)cc1)c1ccc2c(c1)c(-c1cccc(Cl)c1)cc(=O)n2C [tipifarnib] (first compound 0.4 µM, partner dose 0.01 µM)",238
16,"Cc1cc(Nc2cc(N3CCN(C)CC3)nc(Sc3ccc(NC(=O)C4CC4)cc3)n2)n[nH]1 [Tozasertib] + Cc1ccc(NC(=O)c2cccc(N(C)C)c2)cc1NC(=O)c1ccc(O)cc1 [ZM336372] (first compound 0.006 µM, partner dose 2 µM)",182
17,"CC[C@]1(O)C[C@H]2CN(CCc3c([nH]c4ccccc34)[C@@](C(=O)OC)(c3cc4c(cc3OC)N(C=O)[C@H]3[C@@](O)(C(=O)OC)[C@H](OC(C)=O)[C@]5(CC)C=CCN6CC[C@]43[C@@H]65)C2)C1 [vincristine] + CC1(C)NC(=O)N(c2ccc([N+](=O)[O-])c(C(F)(F)F)c2)C1=O [nilutamide] (first compound 0.0001 µM, partner dose 1 µM)",39
18,"N#CC[C@H](C1CCCC1)n1cc(-c2ncnc3[nH]ccc23)cn1 [ruxolitinib] + CO[C@@H]1[C@H](N(C)C(=O)c2ccccc2)C[C@H]2O[C@]1(C)n1c3ccccc3c3c4c(c5c6ccccc6n2c5c31)C(=O)NC4 [Midostaurin] (first compound 1 µM, partner dose 0.08 µM)",57.5
19,"CCCCCCCCCCCCCCCCCCOP(=O)([O-])OC1CC[N+](C)(C)CC1 [Perifosine] + COc1cc2c(Oc3ccc4[nH]c(C)cc4c3F)ncnc2cc1OCCCN1CCCC1 [cediranib] (first compound 0.4 µM, partner dose 0.4 µM)",68
20,"N#CC[C@H](C1CCCC1)n1cc(-c2ncnc3[nH]ccc23)cn1 [ruxolitinib] + COc1cc2c(Oc3ccc4[nH]c(C)cc4c3F)ncnc2cc1OCCCN1CCCC1 [cediranib] (first compound 1 µM, partner dose 0.4 µM)",144
21,"O=C(/C=C/c1cccnc1)NCCCCC1CCN(C(=O)c2ccccc2)CC1 + O=C(O)c1ccc(-c2c[nH]c3ncc(-c4ccccc4)cc23)cc1C1CCCC1 [GSK650394] (first compound 0.01 µM, partner dose 0.16 µM)",297
22,"Cc1cc(Nc2cc(N3CCN(C)CC3)nc(Sc3ccc(NC(=O)C4CC4)cc3)n2)n[nH]1 [Tozasertib] + NCC(=O)Nc1ccc(-n2nc(C(F)(F)F)cc2-c2ccc3c(ccc4ccccc43)c2)cc1 [OSU03012] (first compound 0.006 µM, partner dose 1 µM)",51.8
23,"Cc1cn(-c2cc(NC(=O)c3ccc(C)c(Nc4nccc(-c5cccnc5)n4)c3)cc(C(F)(F)F)c2)cn1 [nilotinib] + CO[C@@H]1[C@H](N(C)C(=O)c2ccccc2)C[C@H]2O[C@]1(C)n1c3ccccc3c3c4c(c5c6ccccc6n2c5c31)C(=O)NC4 [Midostaurin] (first compound 0.2 µM, partner dose 0.08 µM)",120
24,"Cc1ccc(Nc2nccc(N(C)c3ccc4c(C)n(C)nc4c3)n2)cc1S(N)(=O)=O [Pazopanib] + CN(NC(=O)CC(=O)NN(C)C(=S)c1ccccc1)C(=S)c1ccccc1 [STA4783] (first compound 0.4 µM, partner dose 0.006 µM)",91.6
25,"COc1cc([C@@H]2c3cc4c(cc3[C@@H](O[C@@H]3O[C@@H]5CO[C@@H](C)O[C@H]5[C@H](O)[C@H]3O)[C@H]3COC(=O)[C@H]23)OCO4)cc(OC)c1O [etoposide] + Cc1ccc(NC(=O)c2cccc(N(C)C)c2)cc1NC(=O)c1ccc(O)cc1 [ZM336372] (first compound 0.02 µM, partner dose 2 µM)",51.2
26,"O=C(/C=C/c1cccnc1)NCCCCC1CCN(C(=O)c2ccccc2)CC1 + CN(NC(=O)CC(=O)NN(C)C(=S)c1ccccc1)C(=S)c1ccccc1 [STA4783] (first compound 0.01 µM, partner dose 0.006 µM)",224

# Some of the entries above, set out differently:
row	Structure (SMILES)	cleaved PARP positive nuclei fraction [%]
3	Cc1cn(-c2cc(NC(=O)c3ccc(C)c(Nc4nccc(-c5cccnc5)n4)c3)cc(C(F)(F)F)c2)cn1 [nilotinib] + NC(=O)Nc1cc(-c2cccc(F)c2)sc1C(=O)N[C@H]1CCCNC1 [AZD7762] (first compound 0.2 µM, partner dose 0.02 µM)	105
4	Cc1cn(-c2cc(NC(=O)c3ccc(C)c(Nc4nccc(-c5cccnc5)n4)c3)cc(C(F)(F)F)c2)cn1 [nilotinib] + O=C(O)c1ccc(-c2c[nH]c3ncc(-c4ccccc4)cc23)cc1C1CCCC1 [GSK650394] (first compound 0.2 µM, partner dose 0.16 µM)	92.3
